Measured values from the supplement of paper PMC11732987, “Enantioselective OTUD7B fragment discovery through chemoproteomics screening and high-throughput optimisation” (Communications Chemistry, 2025).
This is one part of the list. The data scatter; read single values as rough.

Protein sequences, listed by entry. Tags and fused reporters are not part of them. Lines headed by an entry give the natural chain unless they say otherwise; changes in a name come on top. Residues count along the entry.
UniProt Q96C19, 13-58: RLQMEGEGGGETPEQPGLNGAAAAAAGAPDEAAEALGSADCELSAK
UniProt Q14152, whole entry, looked up: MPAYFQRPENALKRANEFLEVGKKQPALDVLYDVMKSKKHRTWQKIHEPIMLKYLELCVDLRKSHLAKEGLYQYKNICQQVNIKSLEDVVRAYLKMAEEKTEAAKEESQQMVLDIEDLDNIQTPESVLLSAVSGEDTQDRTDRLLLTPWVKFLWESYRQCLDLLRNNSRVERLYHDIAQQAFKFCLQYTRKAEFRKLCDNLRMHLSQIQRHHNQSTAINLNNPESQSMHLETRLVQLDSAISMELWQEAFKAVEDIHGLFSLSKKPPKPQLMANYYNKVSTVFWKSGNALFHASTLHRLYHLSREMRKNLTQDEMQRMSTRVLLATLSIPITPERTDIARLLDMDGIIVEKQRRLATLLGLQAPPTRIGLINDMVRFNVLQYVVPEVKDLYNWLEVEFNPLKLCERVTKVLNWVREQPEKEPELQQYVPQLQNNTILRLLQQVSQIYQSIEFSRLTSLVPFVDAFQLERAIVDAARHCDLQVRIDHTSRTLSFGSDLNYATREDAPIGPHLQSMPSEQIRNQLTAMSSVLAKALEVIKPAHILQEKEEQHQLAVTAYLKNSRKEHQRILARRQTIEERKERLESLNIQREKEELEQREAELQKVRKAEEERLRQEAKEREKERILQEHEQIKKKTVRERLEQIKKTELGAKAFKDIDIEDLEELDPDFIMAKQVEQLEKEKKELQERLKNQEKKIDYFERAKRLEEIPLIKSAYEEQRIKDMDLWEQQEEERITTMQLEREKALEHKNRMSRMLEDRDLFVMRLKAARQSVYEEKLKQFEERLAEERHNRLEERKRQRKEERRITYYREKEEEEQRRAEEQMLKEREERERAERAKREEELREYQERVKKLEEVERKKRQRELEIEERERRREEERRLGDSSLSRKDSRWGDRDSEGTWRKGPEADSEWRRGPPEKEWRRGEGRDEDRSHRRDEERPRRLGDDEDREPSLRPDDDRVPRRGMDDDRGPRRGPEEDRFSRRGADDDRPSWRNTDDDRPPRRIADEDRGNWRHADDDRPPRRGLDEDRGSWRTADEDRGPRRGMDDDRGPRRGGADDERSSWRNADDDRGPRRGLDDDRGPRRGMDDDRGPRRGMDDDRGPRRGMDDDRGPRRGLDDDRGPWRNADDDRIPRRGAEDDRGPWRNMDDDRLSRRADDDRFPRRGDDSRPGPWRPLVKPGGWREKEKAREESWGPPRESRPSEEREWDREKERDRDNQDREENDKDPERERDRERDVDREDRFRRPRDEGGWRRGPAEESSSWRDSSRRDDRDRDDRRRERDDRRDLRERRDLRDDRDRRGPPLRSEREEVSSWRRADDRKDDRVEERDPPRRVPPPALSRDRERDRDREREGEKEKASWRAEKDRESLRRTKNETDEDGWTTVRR
UniProt Q9Y262: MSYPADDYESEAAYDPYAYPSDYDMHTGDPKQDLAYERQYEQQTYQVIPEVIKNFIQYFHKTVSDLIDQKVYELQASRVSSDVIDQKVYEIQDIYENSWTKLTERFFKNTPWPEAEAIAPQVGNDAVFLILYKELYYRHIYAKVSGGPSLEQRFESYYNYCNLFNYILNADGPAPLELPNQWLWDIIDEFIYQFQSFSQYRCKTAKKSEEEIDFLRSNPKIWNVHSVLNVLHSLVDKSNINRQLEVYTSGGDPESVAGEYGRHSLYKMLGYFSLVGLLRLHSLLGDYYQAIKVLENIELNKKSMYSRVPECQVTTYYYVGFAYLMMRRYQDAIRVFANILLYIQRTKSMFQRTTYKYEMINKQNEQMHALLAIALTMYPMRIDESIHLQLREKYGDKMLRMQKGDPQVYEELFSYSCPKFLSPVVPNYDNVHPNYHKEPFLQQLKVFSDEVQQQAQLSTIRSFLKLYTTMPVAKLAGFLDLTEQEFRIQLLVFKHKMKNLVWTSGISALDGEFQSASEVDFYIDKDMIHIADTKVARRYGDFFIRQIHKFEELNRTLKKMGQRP
UniProt Q9BQ52: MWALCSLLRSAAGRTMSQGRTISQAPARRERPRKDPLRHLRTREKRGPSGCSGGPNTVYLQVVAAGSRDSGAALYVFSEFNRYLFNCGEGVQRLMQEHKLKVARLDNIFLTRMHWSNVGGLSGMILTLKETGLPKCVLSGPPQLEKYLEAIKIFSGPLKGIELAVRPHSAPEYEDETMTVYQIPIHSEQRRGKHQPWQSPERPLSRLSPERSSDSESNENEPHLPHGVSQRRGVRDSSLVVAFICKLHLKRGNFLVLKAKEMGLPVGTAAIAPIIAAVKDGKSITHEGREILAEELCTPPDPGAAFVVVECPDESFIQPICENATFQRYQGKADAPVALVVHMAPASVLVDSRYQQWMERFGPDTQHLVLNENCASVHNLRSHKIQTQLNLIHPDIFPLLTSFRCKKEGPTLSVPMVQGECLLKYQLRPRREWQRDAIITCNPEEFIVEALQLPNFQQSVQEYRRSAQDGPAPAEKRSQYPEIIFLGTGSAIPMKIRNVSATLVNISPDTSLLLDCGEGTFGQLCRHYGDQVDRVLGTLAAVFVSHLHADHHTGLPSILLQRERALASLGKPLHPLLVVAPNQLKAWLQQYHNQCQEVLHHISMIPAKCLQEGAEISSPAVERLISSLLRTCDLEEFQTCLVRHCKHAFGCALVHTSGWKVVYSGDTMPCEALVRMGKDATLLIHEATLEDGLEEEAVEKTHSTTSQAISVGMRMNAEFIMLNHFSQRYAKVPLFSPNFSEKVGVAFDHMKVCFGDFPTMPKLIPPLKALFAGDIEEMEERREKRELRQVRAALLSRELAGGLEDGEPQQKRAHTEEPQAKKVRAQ
UniProt Q8N5C7, 24-49: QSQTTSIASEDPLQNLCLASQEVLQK
UniProt P41214: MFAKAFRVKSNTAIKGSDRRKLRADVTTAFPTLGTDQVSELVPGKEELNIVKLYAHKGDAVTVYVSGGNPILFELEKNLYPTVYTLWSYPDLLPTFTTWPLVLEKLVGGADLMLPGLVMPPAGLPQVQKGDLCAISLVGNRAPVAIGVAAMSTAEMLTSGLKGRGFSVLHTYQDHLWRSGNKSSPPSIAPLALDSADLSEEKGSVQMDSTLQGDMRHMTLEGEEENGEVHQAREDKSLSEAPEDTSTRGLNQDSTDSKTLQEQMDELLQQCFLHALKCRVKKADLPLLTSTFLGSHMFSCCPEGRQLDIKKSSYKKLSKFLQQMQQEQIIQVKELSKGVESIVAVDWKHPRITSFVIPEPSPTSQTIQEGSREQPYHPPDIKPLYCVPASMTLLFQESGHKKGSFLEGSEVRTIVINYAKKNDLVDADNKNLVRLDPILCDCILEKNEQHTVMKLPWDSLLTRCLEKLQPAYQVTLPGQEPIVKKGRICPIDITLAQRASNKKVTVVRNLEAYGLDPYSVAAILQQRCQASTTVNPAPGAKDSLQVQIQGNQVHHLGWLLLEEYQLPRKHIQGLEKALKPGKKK
UniProt Q05639, whole entry, looked up: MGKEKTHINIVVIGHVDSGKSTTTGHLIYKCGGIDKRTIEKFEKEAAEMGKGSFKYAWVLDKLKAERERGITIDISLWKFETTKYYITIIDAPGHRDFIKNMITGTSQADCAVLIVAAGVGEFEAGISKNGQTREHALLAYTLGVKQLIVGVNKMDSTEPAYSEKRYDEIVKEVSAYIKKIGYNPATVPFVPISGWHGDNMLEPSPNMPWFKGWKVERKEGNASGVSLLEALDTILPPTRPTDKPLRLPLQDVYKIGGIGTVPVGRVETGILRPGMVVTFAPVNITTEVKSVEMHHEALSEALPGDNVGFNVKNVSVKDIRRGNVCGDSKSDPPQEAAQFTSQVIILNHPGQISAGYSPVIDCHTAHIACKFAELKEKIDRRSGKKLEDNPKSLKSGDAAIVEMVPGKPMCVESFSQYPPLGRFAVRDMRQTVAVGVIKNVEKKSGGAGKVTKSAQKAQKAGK
UniProt Q7RTS9: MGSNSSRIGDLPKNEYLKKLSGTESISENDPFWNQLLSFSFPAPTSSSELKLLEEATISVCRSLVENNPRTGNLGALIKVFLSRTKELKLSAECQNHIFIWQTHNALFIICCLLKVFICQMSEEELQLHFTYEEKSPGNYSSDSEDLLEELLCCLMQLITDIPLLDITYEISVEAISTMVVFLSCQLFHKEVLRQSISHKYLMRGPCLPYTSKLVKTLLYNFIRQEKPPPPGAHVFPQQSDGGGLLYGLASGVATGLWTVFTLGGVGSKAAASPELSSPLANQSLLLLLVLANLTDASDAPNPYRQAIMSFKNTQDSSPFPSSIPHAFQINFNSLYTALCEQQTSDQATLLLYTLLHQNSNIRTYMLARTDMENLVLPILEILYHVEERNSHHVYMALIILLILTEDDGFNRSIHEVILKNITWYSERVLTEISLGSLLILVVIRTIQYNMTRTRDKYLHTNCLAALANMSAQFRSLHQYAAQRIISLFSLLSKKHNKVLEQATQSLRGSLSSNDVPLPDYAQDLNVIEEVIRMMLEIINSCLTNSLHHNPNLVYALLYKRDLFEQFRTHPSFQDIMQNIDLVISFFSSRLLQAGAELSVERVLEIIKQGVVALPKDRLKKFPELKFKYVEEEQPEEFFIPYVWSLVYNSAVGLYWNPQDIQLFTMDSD

How the values were obtained:
[1] = compound: ClCC(=O)N[C@@H]1CCCc2ccccc12; experiment: log2 mean competition ratio of IA-DTB cysteine labelling (DMSO/compound) (log2 ratio); higher = stronger cysteine engagement by compound; settings: treatment time: 4 h, cell line lysate: HEK293T
Procedure: (§1)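 IA-DTB competitive cysteine chemoproteomics in HEK293T RIPA lysate. Lysates were treated with compound 29 or 30 at 50 or 200 µM for 4 h, then IA-DTB (500 µM, 1 h), trypsin-digested, NeutrAvidin-enriched and analysed by diaPASEF. Competition ratio = intensity DMSO / intensity compound (n=4 treated, n=64 DMSO); binding: mean log2 CR ≥ 1 and p ≤ 0.05 plus QC filters. Target is the cysteine site.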

[2] = compound: ClCC(=O)N[C@H]1CCCc2ccccc12; experiment: as above; settings: treatment time: 4 h, cell line lysate: HEK293T
Procedure: as §1

Target | log2 mean competition ratio ([1]; 50 µM) | log2 mean competition ratio ([1]; 200 µM) | log2 mean competition ratio ([2]; 50 µM) | log2 mean competition ratio ([2]; 200 µM)
EHMT2 C754 | -0.0633 | 0.0646 | -0.25 | -0.565
EFHD2 C53 (UniProt Q96C19) | -0.329 | 0.186 | -0.0387 | -0.25
EIF3A C478 (UniProt Q14152) | -0.266 | -0.393 | 0.303 | -0.078
EIF3L C417 (UniProt Q9Y262) | -0.152 | -0.246 | -0.0795 | -0.056
ELAC2 C421 (UniProt Q9BQ52) | 0.253 | 0.0487 | 0.228 | 0.205
EEF2 C369 (UniProt P13639) | -0.337 | -0.456 | 0.00655 | -0.357
DTWD1 C40 (UniProt Q8N5C7) | -0.639 | -0.132 | -0.289 | 0.134
EIF2D C528 (UniProt P41214) | 0.119 | -0.13 | -0.104 | -0.223
EHMT2 C1115 | 0.0788 | 0.269 | -0.749 | -0.00825
EEF1A2 C326 (UniProt Q05639) | -0.199 | 0.113 | -0.205 | 0.191
DYM C207 (UniProt Q7RTS9) | 0.0113 | 0.147 | -0.287 | 0.0659
DST C2061 (UniProt Q03001) | -0.384 | 0.18 | -0.164 | 0.192
DSP C2656 (UniProt P15924) | -0.0508 | -0.376 | -0.385 | -0.352

Part of the list above, tab-delimited.
Target	log2 mean competition ratio ([1]; 50 µM)	log2 mean competition ratio ([1]; 200 µM)	log2 mean competition ratio ([2]; 50 µM)	log2 mean competition ratio ([2]; 200 µM)
EEF1A2 C326 (UniProt Q05639)	-0.199	0.113	-0.205	0.191
DYM C207 (UniProt Q7RTS9)	0.0113	0.147	-0.287	0.0659
